Experimental data published in patent publication US10842152B2, “Isothiazolo-based bicycles, processes for their preparation and their use as herbicides and/or plant growth regulators” (Bayer CropScience Aktiengesellschaft, priority 2017, dated 2020).
Where two headings read alike, the source gives them in different places. Some entries share one result that the patent states for a list of compounds.

Legend:
[1] = test system: Alternaria brassicae; test: In vivo preventive test on Alternaria brassicae (leaf spot on radish or cabbage); settings: 500 ppm of active ingredient, evaluated 6 days after inoculation
[2] = test system: Phytophthora infestans; format: in vivo; settings: preventive, tomato, evaluated 5 days after inoculation
[3] = test system: Septoria tritici; test: In vivo preventive test on Septoria tritici (leaf spot on wheat); settings: evaluated 24 days after inoculation
[4] = test system: Sphaerotheca fuliginea; test: In vivo preventive test on Sphaerotheca fuliginea (powdery mildew on cucurbits); settings: gherkin, evaluated 15 days after inoculation
[5] = test system: Botrytis cinerea; test: In vivo preventive test on Botrytis cinerea (grey mould); settings: gherkin, evaluated 4 to 5 days after inoculation
[6] = test system: Puccinia recondita; test: In vivo preventive test on Puccinia recondita (brown rust on wheat); settings: 500 ppm of active ingredient, evaluated 11 days after inoculation

Measured: efficacy

CCc1cc2c(N)nsc2c(=O)n1CC1CCCCC1 [Example I-020]
at least 70%: [1] | [2]; 500 ppm of active ingredient | [3]; 500 ppm of active ingredient

CC(=O)OCc1cc2c(N)nsc2c(=O)n1CC1CCCCC1 [Example I-027]
at least 70%: [1] | [2]; 500 ppm of active ingredient | [3]; 500 ppm of active ingredient

COCc1cc2c(N)nsc2c(=O)n1CC1CCCCC1 [Example I-028]
at least 70%: [1] | [4]; 100 ppm of active ingredient | [5]; 100 ppm of active ingredient | [2]; 100 ppm of active ingredient | [3]; 500 ppm of active ingredient

COCc1cc2c(NC(=O)C(F)(F)C(F)(F)F)nsc2c(=O)n1CC1CCCCC1 [Example I-034]
at least 70%: [1] | [2]; 500 ppm of active ingredient | [3]; 500 ppm of active ingredient

COC/C=C/c1cn(CC2CCCCC2)c(=O)c2snc(N)c12 [Example I-108]
at least 70%: [1] | [4]; 500 ppm of active ingredient | [2]; 500 ppm of active ingredient | [6]

CCO/C=C/c1cn(CC2CCCCC2)c(=O)c2snc(N)c12 [Example I-113]
at least 70%: [4]; 500 ppm of active ingredient | [5]; 100 ppm of active ingredient | [2]; 100 ppm of active ingredient | [6]

CCO/N=C(/C)c1cn(CC2CCCCC2)c(=O)c2snc(N)c12 [Example I-141]
at least 70%: [4]; 500 ppm of active ingredient | [5]; 500 ppm of active ingredient | [2]; 500 ppm of active ingredient | [6]

CC(O)c1cn(CC2CCCCC2)c(=O)c2snc(N)c12 (stereo not drawn) [Example I-147]
at least 70%: [5]; 500 ppm of active ingredient | [2]; 500 ppm of active ingredient | [3]; 100 ppm of active ingredient | [6]
